Like-named read-outs stand apart in the source and are kept apart here.
Columns and labels:
MDA-MB-231/ATCC = experiment: NCI DTP in-vitro dose response, Breast Cancer; type: cell-based; conditions: MDA-MB-231/ATCC
BT-549 = experiment: NCI DTP in-vitro dose response, Breast Cancer; type: cell-based
HCC-2998 = experiment: NCI DTP in-vitro dose response, Colon Cancer; type: cell-based
KM12 = experiment: NCI DTP in-vitro dose response, Colon Cancer; type: cell-based
HCT-15 = experiment: NCI DTP in-vitro dose response, Colon Cancer; type: cell-based
HT29 = experiment: NCI DTP in-vitro dose response, Colon Cancer; type: cell-based
U251 = experiment: NCI DTP in-vitro dose response, CNS Cancer; type: cell-based
SNB-75 = experiment: NCI DTP in-vitro dose response, CNS Cancer; type: cell-based
A498 = experiment: NCI DTP in-vitro dose response, Renal Cancer; type: cell-based
SK-MEL-28 = experiment: NCI DTP in-vitro dose response, Melanoma; type: cell-based
UACC-62 = experiment: NCI DTP in-vitro dose response, Melanoma; type: cell-based
UACC-257 = experiment: NCI DTP in-vitro dose response, Melanoma; type: cell-based
MALME-3M = experiment: NCI DTP in-vitro dose response, Melanoma; type: cell-based

O=C1c2ccccc2C(=O)c2c1ccc1nccnc21 [TABLE 5-9]
Mean Optical Densities (MDA-MB-231/ATCC; Log10 Concentration −4.0): 0.535 | Mean Optical Densities (MDA-MB-231/ATCC; Log10 Concentration −5.0): 0.854 | Mean Optical Densities (MDA-MB-231/ATCC; Log10 Concentration −6.0): 0.987 | Mean Optical Densities (MDA-MB-231/ATCC; Log10 Concentration −7.0): 1.008 | Mean Optical Densities (MDA-MB-231/ATCC; Log10 Concentration −8.0): 1.085 | Mean Optical Densities (BT-549; BT-549, Log10 Concentration −4.0): 0.562 | Mean Optical Densities (BT-549; BT-549, Log10 Concentration −5.0): 0.886 | Mean Optical Densities (BT-549; BT-549, Log10 Concentration −6.0): 1.044 | Mean Optical Densities (BT-549; BT-549, Log10 Concentration −7.0): 1.057 | Mean Optical Densities (BT-549; BT-549, Log10 Concentration −8.0): 1.114

O=C1c2ccccc2C(=O)c2c1ccc1nccnc21 [TABLE 5-3]
Mean Optical Densities (HCC-2998; Log10 Concentration −4.0): 0.315 | Mean Optical Densities (HCC-2998; Log10 Concentration −5.0): 0.658 | Mean Optical Densities (HCC-2998; Log10 Concentration −6.0): 0.759 | Mean Optical Densities (HCC-2998; Log10 Concentration −7.0): 1.113 | Mean Optical Densities (HCC-2998; Log10 Concentration −8.0): 1.135 | Mean Optical Densities (KM12; Log10 Concentration −4.0): 0.185 | Mean Optical Densities (KM12; Log10 Concentration −5.0): 0.522 | Mean Optical Densities (KM12; Log10 Concentration −6.0): 0.786 | Mean Optical Densities (KM12; Log10 Concentration −7.0): 0.896 | Mean Optical Densities (KM12; Log10 Concentration −8.0): 0.884 | Mean Optical Densities (HCT-15; Log10 Concentration −4.0): 0.266 | Mean Optical Densities (HCT-15; Log10 Concentration −5.0): 0.784 | Mean Optical Densities (HCT-15; Log10 Concentration −6.0): 1.343 | Mean Optical Densities (HCT-15; Log10 Concentration −7.0): 1.449 | Mean Optical Densities (HCT-15; Log10 Concentration −8.0): 1.502 | Mean Optical Densities (HT29; Log10 Concentration −4.0): 0.184 | Mean Optical Densities (HT29; Log10 Concentration −5.0): 0.636 | Mean Optical Densities (HT29; Log10 Concentration −6.0): 0.925 | Mean Optical Densities (HT29; Log10 Concentration −7.0): 1.131 | Mean Optical Densities (HT29; Log10 Concentration −8.0): 1.176

CCc1nc2ccc3c(c2[nH]1)C(=O)c1ccccc1C3=O [TABLE 4-4]
Mean Optical Densities (U251; Log10 Concentration −4.0): 0.597 | Mean Optical Densities (U251; Log10 Concentration −5.0): 0.854 | Mean Optical Densities (U251; Log10 Concentration −6.0): 1.260 | Mean Optical Densities (U251; Log10 Concentration −7.0): 1.393 | Mean Optical Densities (U251; Log10 Concentration −8.0): 1.369 | Mean Optical Densities (SNB-75; Log10 Concentration −4.0): 0.770 | Mean Optical Densities (SNB-75; Log10 Concentration −5.0): 0.916 | Mean Optical Densities (SNB-75; Log10 Concentration −6.0): 0.965 | Mean Optical Densities (SNB-75; Log10 Concentration −7.0): 1.070 | Mean Optical Densities (SNB-75; Log10 Concentration −8.0): 1.068

O=C1c2ccccc2C(=O)c2c1ccc1nccnc21 [TABLE 5-2]
Mean Optical Densities (HOP-92; Log10 Concentration −4.0): 0.829 | Mean Optical Densities (HOP-92; Log10 Concentration −5.0): 1.206 | Mean Optical Densities (HOP-92; Log10 Concentration −6.0): 1.231 | Mean Optical Densities (HOP-92; Log10 Concentration −7.0): 1.260 | Mean Optical Densities (HOP-92; Log10 Concentration −8.0): 1.334 | Mean Optical Densities (EKVX; Log10 Concentration −4.0): 0.421 | Mean Optical Densities (EKVX; Log10 Concentration −5.0): 0.584 | Mean Optical Densities (EKVX; Log10 Concentration −6.0): 0.904 | Mean Optical Densities (EKVX; Log10 Concentration −7.0): 0.960 | Mean Optical Densities (EKVX; Log10 Concentration −8.0): 1.032 | Mean Optical Densities (NCI-H460; Log10 Concentration −4.0): 0.179 | Mean Optical Densities (NCI-H460; Log10 Concentration −5.0): 0.507 | Mean Optical Densities (NCI-H460; Log10 Concentration −6.0): 1.309 | Mean Optical Densities (NCI-H460; Log10 Concentration −7.0): 1.815 | Mean Optical Densities (NCI-H460; Log10 Concentration −8.0): 1.869 | Mean Optical Densities (NCI-H522; Log10 Concentration −4.0): 0.226 | Mean Optical Densities (NCI-H522; Log10 Concentration −5.0): 0.579 | Mean Optical Densities (NCI-H522; Log10 Concentration −6.0): 0.906 | Mean Optical Densities (NCI-H522; Log10 Concentration −7.0): 0.942 | Mean Optical Densities (NCI-H522; Log10 Concentration −8.0): 0.966 | Mean Optical Densities (NCI-H226; Log10 Concentration −4.0): 0.769 | Mean Optical Densities (NCI-H226; Log10 Concentration −5.0): 1.415 | Mean Optical Densities (NCI-H226; Log10 Concentration −6.0): 1.497 | Mean Optical Densities (NCI-H226; Log10 Concentration −7.0): 1.577 | Mean Optical Densities (NCI-H226; Log10 Concentration −8.0): 1.631

CCc1nc2ccc3c(c2[nH]1)C(=O)c1ccccc1C3=O [TABLE 4-7]
Mean Optical Densities (A498; Log10 Concentration −4.0): 0.453 | Mean Optical Densities (A498; Log10 Concentration −5.0): 0.793 | Mean Optical Densities (A498; Log10 Concentration −6.0): 1.065 | Mean Optical Densities (A498; Log10 Concentration −7.0): 1.221 | Mean Optical Densities (A498; Log10 Concentration −8.0): 1.202

O=C1c2ccccc2C(=O)c2c1ccc1nccnc21 [TABLE 5-1]
Mean Optical Densities (CCRF-CEM; Log10 Concentration −4.0): 0.344 | Mean Optical Densities (CCRF-CEM; Log10 Concentration −5.0): 0.358 | Mean Optical Densities (CCRF-CEM; Log10 Concentration −6.0): 0.622 | Mean Optical Densities (CCRF-CEM; Log10 Concentration −7.0): 0.755 | Mean Optical Densities (CCRF-CEM; Log10 Concentration −8.0): 0.751 | Mean Optical Densities (RPMI-8226; Log10 Concentration −4.0): 0.535 | Mean Optical Densities (RPMI-8226; Log10 Concentration −5.0): 0.702 | Mean Optical Densities (RPMI-8226; Log10 Concentration −6.0): 0.926 | Mean Optical Densities (RPMI-8226; Log10 Concentration −7.0): 1.161 | Mean Optical Densities (RPMI-8226; Log10 Concentration −8.0): 1.245

O=C1c2ccccc2C(=O)c2c1ccc1nccnc21 [TABLE 5-5]
Mean Optical Densities (SK-MEL-28; Log10 Concentration −4.0): 0.352 | Mean Optical Densities (SK-MEL-28; Log10 Concentration −5.0): 0.873 | Mean Optical Densities (SK-MEL-28; Log10 Concentration −6.0): 1.070 | Mean Optical Densities (SK-MEL-28; Log10 Concentration −7.0): 1.050 | Mean Optical Densities (SK-MEL-28; Log10 Concentration −8.0): 1.041 | Mean Optical Densities (UACC-62; Log10 Concentration −4.0): 0.662 | Mean Optical Densities (UACC-62; Log10 Concentration −5.0): 1.655 | Mean Optical Densities (UACC-62; Log10 Concentration −6.0): 2.030 | Mean Optical Densities (UACC-62; Log10 Concentration −7.0): 1.986 | Mean Optical Densities (UACC-62; Log10 Concentration −8.0): 2.103 | Mean Optical Densities (UACC-257; Log10 Concentration −4.0): 0.413 | Mean Optical Densities (UACC-257; Log10 Concentration −5.0): 0.815 | Mean Optical Densities (UACC-257; Log10 Concentration −6.0): 1.063 | Mean Optical Densities (UACC-257; Log10 Concentration −7.0): 0.996 | Mean Optical Densities (UACC-257; Log10 Concentration −8.0): 1.040 | Mean Optical Densities (MALME-3M; Log10 Concentration −4.0): 0.145 | Mean Optical Densities (MALME-3M; Log10 Concentration −5.0): 0.498 | Mean Optical Densities (MALME-3M; Log10 Concentration −6.0): 0.687 | Mean Optical Densities (MALME-3M; Log10 Concentration −7.0): 0.696 | Mean Optical Densities (MALME-3M; Log10 Concentration −8.0): 0.715

— patent US8445492B2, “Method for inhibiting growth of cancer cells and cell telomere and diseases of cell proliferation by using heteroannelated anthraquinone derivative compounds” (National Defense Medical Center, priority 2008, dated 2013)
